1 substance from article PMC8435636 can be followed below.

Chains of the proteins cited; added tags and fusions are not shown.
UniProt Q9UBN7: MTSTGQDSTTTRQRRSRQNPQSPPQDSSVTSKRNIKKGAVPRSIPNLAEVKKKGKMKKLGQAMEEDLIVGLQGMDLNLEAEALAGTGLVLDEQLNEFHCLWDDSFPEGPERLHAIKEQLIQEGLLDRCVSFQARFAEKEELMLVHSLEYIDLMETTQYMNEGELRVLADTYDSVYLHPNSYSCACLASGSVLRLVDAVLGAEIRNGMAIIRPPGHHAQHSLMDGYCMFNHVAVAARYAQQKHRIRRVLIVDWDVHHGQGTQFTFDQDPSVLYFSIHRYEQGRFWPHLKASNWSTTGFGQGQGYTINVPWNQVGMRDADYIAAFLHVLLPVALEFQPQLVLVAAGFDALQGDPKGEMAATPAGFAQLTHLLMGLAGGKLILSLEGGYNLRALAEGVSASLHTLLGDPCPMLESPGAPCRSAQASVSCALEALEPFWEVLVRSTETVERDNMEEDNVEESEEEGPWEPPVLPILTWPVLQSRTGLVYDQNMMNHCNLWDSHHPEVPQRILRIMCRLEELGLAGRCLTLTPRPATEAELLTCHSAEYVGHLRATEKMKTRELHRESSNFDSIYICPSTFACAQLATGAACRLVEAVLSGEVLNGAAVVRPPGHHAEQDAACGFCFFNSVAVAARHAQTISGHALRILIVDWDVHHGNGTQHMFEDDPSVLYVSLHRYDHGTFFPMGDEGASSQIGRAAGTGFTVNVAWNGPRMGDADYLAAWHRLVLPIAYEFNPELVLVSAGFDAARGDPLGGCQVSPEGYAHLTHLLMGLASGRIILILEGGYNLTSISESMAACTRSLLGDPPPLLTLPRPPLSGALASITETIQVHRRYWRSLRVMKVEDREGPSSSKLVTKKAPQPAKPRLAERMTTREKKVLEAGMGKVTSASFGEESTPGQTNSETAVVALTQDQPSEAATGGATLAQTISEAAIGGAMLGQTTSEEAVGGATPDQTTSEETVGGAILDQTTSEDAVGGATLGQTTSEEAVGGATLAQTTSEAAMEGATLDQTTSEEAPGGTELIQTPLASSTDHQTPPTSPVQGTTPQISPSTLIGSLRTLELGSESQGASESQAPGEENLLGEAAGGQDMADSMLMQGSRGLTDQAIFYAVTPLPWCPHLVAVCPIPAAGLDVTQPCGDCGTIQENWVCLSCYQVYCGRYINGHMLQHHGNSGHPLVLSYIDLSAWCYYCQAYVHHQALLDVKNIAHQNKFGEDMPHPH
UniProt P84022: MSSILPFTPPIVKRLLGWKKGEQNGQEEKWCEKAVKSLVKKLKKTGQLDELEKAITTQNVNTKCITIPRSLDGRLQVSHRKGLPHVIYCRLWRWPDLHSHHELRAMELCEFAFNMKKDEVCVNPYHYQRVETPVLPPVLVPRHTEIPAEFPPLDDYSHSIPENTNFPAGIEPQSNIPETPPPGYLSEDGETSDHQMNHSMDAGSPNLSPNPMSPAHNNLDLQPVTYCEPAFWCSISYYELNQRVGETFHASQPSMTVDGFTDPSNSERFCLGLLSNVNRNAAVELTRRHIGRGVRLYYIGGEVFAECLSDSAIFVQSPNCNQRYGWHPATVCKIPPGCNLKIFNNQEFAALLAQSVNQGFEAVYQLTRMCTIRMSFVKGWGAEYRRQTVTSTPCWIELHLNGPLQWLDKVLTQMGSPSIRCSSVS

In this assay the target is histone deacetylase 6 (human (endogenous in HPMCs)) (UniProt Q9UBN7). Nature of the assay: co-IP; HPMCs starved 24 h, IL-6 (100 ng/ml) 36 h; non-denaturing lysis buffer; HDAC6 or IgG antibody immobilised on AminoLink Plus resin (Pierce co-IP kit), incubated with lysate overnight; immunoblot for Smad3, HDAC6 and GAPDH.

No constants are given. Whether binding was seen depends on the method and setting. Binding seen in cells or lysates may run through a third protein. Some binding calls cover weakened binding; strength is not graded here.

Consider Smad3 (from UniProt P84022 1-425), for which the binding entry is “binds”.
